At least one compound was matched to its structure with a doubt left.
What was measured:
[1] = tested on: MSU-induced air sacs; assay: Air sacculitis (MSU-induced air sacs), leukocyte counts in lavage fluid; details: compound A at the oral doses of 30 mg/kg and 100 mg/kg;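 note: male Wistar rats with dorsal air sacs, dosed 1 h before injecting MSU crystal suspension, compared with saline-injected blank and vehicle-treated model groups, cytological analysis of lavage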
[2] = tested on: IL-1β, IL-6, KC and TNFα; assay: Air sacculitis (MSU-induced air sacs), cytokines in lavage fluid; details: rat, in vivo

C[C@@H]1C[C@H]2[C@@H]3CCC4=CC(=O)C=C[C@]4(C)[C@@]3(F)[C@@H](O)C[C@]2(C)[C@@]1(O)C(=O)CO [Dexamethasone, dexamethasone]
effect on increase of the total cell count and neutrophil count in the lavage fluid caused by MSU (in words) [1]: significantly inhibit
effect on increase of IL-1β, IL-6, KC and TNFα caused by MSU (in words) [2]: significantly inhibit
